Results published in the supplement of paper PMC10849652.
The list shows a part of the results.

Amino acid sequences for entries named in this document (tags omitted). A change or cut given only in a name is not applied to a line headed by its entry.
UniProt P42224: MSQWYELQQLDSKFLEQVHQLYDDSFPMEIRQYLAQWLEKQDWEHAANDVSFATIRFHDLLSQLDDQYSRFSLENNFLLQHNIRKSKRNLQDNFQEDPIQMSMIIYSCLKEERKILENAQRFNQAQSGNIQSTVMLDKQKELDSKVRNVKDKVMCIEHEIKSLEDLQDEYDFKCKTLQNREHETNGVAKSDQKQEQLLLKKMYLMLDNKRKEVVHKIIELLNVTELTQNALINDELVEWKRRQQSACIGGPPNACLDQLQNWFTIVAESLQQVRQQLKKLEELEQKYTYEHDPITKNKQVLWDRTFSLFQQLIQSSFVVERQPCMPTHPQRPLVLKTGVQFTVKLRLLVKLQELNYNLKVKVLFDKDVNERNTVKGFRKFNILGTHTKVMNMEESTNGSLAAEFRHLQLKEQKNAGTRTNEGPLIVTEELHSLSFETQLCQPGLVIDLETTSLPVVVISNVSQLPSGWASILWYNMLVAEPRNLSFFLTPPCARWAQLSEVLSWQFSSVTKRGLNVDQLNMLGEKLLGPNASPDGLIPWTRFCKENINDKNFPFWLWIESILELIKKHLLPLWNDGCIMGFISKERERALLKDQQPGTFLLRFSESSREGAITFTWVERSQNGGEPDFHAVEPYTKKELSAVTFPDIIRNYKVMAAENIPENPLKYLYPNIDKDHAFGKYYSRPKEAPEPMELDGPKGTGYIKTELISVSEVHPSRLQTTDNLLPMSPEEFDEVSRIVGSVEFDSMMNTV
UniProt O15270: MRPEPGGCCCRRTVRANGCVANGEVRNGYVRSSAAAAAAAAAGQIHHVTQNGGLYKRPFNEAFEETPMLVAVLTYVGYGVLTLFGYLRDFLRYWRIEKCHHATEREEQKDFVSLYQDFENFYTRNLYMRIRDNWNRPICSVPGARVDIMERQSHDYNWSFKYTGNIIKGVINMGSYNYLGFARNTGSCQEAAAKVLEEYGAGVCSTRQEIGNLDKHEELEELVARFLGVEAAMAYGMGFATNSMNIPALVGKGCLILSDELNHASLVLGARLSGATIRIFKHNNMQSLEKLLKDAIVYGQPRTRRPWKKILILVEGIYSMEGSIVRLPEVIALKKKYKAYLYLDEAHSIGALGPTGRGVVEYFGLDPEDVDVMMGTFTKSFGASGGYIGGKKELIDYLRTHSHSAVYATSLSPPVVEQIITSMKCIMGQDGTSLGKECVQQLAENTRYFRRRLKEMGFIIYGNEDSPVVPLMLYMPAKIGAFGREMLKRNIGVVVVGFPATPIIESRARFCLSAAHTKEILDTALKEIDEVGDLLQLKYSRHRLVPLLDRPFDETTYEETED
UniProt Q9H8P0: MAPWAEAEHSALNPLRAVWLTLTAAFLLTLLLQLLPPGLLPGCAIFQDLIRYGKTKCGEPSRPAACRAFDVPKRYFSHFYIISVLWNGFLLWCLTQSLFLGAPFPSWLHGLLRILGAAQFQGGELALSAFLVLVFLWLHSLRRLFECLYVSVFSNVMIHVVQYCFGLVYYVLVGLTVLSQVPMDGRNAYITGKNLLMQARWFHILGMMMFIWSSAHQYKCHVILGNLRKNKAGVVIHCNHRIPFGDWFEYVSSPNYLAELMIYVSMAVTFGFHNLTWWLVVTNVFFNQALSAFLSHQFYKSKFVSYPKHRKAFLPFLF
UniProt Q5W111: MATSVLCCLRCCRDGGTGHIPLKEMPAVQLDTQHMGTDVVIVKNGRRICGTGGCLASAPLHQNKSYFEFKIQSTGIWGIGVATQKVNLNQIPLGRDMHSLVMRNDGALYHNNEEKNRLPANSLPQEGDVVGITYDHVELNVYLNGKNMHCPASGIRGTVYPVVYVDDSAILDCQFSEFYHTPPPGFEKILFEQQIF
UniProt P22528: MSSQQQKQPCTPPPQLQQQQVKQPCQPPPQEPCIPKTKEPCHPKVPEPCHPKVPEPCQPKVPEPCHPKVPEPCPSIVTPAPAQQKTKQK
UniProt Q8WWL2: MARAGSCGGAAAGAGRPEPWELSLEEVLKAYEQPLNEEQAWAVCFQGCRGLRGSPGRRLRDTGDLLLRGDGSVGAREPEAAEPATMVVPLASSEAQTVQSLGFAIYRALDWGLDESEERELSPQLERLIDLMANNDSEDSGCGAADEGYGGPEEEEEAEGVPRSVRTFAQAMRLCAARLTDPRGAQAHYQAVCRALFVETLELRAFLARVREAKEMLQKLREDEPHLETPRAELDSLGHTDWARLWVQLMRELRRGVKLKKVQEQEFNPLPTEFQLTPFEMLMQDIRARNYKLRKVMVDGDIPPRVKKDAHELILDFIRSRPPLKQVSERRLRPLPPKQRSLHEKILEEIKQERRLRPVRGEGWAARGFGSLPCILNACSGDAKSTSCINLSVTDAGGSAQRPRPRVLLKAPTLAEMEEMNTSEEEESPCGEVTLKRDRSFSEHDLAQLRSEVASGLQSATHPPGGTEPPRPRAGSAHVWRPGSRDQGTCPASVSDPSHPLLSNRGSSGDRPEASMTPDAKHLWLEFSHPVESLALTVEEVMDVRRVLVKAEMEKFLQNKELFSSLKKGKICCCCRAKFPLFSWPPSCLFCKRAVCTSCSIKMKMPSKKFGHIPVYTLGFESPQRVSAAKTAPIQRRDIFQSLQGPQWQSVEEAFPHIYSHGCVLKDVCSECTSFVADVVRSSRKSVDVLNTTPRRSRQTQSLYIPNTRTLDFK
UniProt O15020, whole entry, looked up: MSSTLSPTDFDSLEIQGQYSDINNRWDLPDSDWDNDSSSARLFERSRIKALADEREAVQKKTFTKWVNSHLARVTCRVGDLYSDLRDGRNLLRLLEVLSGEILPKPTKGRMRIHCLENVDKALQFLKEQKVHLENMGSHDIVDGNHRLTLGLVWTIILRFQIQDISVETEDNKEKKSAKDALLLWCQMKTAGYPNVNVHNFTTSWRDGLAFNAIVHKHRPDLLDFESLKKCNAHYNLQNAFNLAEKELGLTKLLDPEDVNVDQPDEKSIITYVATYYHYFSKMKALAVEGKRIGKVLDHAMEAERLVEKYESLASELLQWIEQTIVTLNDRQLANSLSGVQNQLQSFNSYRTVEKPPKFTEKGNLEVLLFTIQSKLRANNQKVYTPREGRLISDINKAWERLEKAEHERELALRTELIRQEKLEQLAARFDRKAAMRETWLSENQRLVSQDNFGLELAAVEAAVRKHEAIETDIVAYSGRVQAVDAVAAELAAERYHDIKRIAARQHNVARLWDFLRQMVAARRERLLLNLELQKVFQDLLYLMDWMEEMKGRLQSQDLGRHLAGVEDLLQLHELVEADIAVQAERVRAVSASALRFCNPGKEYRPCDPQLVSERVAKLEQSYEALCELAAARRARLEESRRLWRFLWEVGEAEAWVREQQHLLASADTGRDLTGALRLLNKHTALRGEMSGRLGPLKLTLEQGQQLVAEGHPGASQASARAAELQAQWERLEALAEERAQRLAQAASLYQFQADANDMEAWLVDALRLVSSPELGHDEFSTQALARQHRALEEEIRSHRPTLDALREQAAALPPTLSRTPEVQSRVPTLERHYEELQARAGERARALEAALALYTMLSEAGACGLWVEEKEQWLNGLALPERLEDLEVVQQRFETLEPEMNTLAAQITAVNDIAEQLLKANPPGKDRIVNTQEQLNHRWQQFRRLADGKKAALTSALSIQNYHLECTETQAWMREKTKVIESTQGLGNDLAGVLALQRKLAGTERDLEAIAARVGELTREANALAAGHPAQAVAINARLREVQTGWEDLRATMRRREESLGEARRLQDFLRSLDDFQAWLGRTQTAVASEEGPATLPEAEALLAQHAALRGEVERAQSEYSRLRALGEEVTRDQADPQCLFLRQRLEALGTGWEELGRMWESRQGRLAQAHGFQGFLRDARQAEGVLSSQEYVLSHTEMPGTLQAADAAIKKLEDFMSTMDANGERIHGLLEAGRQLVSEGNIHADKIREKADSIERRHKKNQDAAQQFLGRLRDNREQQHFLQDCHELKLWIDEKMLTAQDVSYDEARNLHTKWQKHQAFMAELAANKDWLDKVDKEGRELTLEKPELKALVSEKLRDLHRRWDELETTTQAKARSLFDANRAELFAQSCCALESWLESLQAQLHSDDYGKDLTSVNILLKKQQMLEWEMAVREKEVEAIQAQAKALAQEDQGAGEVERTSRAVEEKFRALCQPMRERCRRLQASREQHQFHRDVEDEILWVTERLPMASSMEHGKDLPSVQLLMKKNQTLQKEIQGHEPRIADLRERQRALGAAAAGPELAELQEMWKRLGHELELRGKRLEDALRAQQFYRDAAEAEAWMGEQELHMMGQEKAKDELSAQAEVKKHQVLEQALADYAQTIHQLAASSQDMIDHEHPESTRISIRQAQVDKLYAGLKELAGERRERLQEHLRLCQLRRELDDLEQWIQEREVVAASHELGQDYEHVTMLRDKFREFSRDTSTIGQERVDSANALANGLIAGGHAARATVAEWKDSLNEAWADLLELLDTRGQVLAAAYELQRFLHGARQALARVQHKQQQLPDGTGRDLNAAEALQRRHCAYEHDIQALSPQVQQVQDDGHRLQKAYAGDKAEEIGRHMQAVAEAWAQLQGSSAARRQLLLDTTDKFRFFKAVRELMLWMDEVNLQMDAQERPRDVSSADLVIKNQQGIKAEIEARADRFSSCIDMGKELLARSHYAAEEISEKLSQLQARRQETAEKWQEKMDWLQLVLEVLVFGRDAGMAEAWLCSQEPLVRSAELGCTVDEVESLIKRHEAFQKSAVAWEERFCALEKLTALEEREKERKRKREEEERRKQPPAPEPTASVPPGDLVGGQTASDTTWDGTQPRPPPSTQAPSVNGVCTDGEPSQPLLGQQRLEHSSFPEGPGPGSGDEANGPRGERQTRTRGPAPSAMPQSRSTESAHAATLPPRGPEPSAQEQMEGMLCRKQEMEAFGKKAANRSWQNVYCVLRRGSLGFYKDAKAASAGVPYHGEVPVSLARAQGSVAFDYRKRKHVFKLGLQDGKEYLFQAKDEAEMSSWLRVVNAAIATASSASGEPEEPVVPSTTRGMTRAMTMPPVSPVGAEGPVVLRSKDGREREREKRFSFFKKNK
UniProt Q15532, whole entry, looked up: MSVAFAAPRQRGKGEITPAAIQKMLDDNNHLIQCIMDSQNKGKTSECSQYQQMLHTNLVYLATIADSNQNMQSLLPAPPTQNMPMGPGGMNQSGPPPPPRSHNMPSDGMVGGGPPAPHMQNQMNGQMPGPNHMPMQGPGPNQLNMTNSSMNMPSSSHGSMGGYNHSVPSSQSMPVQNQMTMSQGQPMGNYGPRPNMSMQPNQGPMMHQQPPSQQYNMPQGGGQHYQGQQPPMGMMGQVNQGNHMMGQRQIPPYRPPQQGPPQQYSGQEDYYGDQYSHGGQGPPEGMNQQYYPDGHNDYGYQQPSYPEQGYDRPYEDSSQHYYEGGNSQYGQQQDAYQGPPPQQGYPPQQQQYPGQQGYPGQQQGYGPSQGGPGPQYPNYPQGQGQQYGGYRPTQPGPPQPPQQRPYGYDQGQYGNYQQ
UniProt Q12772: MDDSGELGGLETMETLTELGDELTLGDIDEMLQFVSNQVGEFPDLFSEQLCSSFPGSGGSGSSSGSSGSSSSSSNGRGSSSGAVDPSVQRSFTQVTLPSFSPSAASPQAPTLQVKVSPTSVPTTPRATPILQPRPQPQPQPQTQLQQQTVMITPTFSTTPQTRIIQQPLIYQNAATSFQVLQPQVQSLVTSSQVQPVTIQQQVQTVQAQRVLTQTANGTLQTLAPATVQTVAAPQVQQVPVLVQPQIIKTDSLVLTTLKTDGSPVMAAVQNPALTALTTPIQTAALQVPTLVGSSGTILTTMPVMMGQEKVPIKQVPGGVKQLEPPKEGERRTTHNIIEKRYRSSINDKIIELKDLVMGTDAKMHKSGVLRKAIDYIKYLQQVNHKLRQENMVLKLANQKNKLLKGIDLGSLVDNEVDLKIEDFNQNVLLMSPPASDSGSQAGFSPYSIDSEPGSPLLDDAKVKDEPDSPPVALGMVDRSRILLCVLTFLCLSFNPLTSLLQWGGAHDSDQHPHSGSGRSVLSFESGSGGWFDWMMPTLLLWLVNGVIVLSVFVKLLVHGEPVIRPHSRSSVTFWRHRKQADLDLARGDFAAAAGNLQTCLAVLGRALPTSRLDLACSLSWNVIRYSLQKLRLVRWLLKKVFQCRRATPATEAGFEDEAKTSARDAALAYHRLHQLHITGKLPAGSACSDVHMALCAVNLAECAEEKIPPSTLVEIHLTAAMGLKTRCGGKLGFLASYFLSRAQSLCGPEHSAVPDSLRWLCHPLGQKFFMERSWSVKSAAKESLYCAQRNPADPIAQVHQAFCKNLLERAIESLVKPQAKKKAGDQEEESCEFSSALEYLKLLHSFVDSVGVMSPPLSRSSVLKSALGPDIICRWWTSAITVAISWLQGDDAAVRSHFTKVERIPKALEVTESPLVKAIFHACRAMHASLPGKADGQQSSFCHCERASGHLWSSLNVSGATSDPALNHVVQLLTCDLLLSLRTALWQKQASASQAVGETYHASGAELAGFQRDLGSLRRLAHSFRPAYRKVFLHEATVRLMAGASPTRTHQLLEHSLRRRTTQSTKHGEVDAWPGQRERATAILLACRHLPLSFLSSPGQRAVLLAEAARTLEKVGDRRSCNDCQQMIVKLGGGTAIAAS

The targets below were run with c1cn2cc(-c3ccc4cn[nH]c4c3)nc(Nc3ccc(N4CCOCC4)cc3)c2n1 [entospletinib] (assay: log2 fold change, soluble protein after heating vs DMSO (PISA); higher = thermal stabilisation; K562 cells, 10 uM, 30 min; active = over 0.2 and 3.5 SD of the protein, either way, in both replicates (recomputed)).
Procedure, shortened: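 Soluble protein was defined as the supernatant after 21,000xg for 90 min. It came from K562 cells at 2×10^6 cells/mL given 10 μM compound for 30 min, heated in aliquots for 3 min across 48°C-58°C, pooled, and extracted in PBS with 0.5% NP-40 at 4°C, and was quantified by TMTpro 16plex LC-MS/MS with equalised channel sums. Thermal stability against control samples, from duplicates, is reported as log2 fold change.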

log2 fold change, inactive:
SRP9 (UniProt P49458) 0.003
STAU1 (UniProt O95793) 0.048
SPTB isoform 2 (UniProt P11277) 0.23
SPCS1, A0A5F9YFS9 0.037
SPATS2 (UniProt Q86XZ4) -0.016
SRP19 (UniProt P09132) -0.051
STAT1 (UniProt P42224) 0.301
SPATA33 isoform 2 (UniProt Q96N06) 0.011
SPTLC2 (UniProt O15270) 0.002
STARD10 (UniProt Q9Y365) 0.022
SPIN1 (UniProt Q9Y657) 0.084
SRD5A3 (UniProt Q9H8P0) -0.028
SPRYD7 (UniProt Q5W111) -0.11
SRRT (UniProt Q9BXP5) -0.037
SRGN (UniProt P10124) 0.087
SRRM1 (UniProt Q8IYB3) 0.092
SRSF1 (UniProt Q07955) 0.16
ST13 (UniProt P50502) 0.015
STAU2 (UniProt Q9NUL3) 0.08
STAM (UniProt Q92783) -0.003
SPECC1L (UniProt Q69YQ0) -0.026
SPRR1B (UniProt P22528) -0.078
SPC25 (UniProt Q9HBM1) -0.032
STAG1 (UniProt Q8WVM7) -0.04
SRPK1 (UniProt Q96SB4) 0.052
SPATA5L1 (UniProt Q9BVQ7) -0.005
SPATA5 (UniProt Q8NB90) -0.012
SPIRE2 (UniProt Q8WWL2) 0.425
STK24 (UniProt Q9Y6E0) -0.032
SPRYD4 (UniProt Q8WW59) 0.033
SPTBN2 (UniProt O15020) 0.021
ST6GALNAC1 (UniProt Q9NSC7) -0.073
SS18 (UniProt Q15532) -0.033
SRP14 (UniProt P37108) 0.121
STAMBP (UniProt O95630) -0.013
SREBF2 (UniProt Q12772) -0.058

As a short view, part of the list above.
log2 fold change, inactive:
SPATS2 (UniProt Q86XZ4) -0.016
SRP19 (UniProt P09132) -0.051
